# According to the supplement of paper PMC6411743:
# ± gives the standard deviation of the averaged measurements. The list shows a part of the results, in another mix than the full data.
# Assays:
# Assay in all cases: NP40-soluble protein abundance relative to vehicle (solubility fold change) (ratio); higher = more soluble protein in presence of ATP
# UniProt Q9H0G5 = molecular target: T1, UniProt Q9H0G5
# T1 sequence (whole entry): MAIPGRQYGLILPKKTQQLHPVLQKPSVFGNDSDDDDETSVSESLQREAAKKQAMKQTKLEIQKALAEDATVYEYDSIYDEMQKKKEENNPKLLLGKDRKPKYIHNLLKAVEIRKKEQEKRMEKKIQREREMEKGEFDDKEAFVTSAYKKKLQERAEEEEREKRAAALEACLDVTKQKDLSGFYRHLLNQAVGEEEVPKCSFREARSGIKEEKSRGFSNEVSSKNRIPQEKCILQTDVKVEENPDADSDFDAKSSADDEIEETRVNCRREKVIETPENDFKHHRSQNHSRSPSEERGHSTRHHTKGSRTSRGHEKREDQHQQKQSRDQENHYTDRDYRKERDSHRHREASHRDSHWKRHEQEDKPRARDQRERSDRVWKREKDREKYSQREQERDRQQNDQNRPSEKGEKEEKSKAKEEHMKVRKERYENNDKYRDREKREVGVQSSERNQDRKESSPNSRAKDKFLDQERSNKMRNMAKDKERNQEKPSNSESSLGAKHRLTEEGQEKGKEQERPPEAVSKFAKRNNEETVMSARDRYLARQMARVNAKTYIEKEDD
# Method in brief: (§1)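 Jurkat crude lysate (Dounce-homogenised) was treated with eight concentrations from 0.1 to 10 mM for 10 min at room temperature, then 3 min at 37 °C. It was solubilised with 0.8% NP40 and benzonase (60 min, 4 °C) and ultracentrifuged, and the supernatant was TMT-labelled for LC-MS/MS. Intensities were vsn-normalised, and the value is the fold change against the NP40-processed vehicle per replicate, from three independent experiments.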
# [1] = molecular target: T2, UniProt Q9H0R5 and related entries
# T2 sequence (whole entry): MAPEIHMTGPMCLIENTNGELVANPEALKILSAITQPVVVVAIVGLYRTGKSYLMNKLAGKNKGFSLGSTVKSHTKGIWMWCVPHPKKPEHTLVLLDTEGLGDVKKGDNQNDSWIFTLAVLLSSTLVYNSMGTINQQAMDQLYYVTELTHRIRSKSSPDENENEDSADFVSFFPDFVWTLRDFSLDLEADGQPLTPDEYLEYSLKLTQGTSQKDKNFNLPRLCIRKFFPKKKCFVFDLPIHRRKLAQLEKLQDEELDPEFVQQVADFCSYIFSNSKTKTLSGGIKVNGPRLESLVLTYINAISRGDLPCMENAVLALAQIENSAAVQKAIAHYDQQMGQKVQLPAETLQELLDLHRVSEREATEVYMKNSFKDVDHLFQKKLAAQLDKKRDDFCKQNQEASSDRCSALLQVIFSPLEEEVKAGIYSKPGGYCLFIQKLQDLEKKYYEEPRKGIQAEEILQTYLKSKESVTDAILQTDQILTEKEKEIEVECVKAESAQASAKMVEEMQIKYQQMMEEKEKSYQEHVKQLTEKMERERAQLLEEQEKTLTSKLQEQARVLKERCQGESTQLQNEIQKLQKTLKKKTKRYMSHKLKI
# Method in brief: as §1
# UniProt Q9H0X4 = molecular target: T3, UniProt Q9H0X4
# T3 sequence (whole entry): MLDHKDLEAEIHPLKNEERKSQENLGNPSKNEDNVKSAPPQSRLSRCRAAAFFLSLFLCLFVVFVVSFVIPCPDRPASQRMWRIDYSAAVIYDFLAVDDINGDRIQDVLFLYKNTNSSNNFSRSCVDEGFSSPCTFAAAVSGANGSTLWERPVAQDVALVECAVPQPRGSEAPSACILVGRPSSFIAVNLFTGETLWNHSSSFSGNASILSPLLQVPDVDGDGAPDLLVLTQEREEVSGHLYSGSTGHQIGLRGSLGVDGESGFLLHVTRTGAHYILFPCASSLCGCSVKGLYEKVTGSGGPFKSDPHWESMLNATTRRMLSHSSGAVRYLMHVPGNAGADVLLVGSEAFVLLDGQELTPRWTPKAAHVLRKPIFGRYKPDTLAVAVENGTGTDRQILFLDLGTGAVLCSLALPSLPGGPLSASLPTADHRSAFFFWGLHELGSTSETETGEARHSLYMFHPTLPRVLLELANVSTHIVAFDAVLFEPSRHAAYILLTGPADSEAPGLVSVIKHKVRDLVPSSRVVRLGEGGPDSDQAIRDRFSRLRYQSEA
# Method in brief: as §1
# [2] = molecular target: T4, UniProt Q9H270 and related entries
# T4 sequence (whole entry): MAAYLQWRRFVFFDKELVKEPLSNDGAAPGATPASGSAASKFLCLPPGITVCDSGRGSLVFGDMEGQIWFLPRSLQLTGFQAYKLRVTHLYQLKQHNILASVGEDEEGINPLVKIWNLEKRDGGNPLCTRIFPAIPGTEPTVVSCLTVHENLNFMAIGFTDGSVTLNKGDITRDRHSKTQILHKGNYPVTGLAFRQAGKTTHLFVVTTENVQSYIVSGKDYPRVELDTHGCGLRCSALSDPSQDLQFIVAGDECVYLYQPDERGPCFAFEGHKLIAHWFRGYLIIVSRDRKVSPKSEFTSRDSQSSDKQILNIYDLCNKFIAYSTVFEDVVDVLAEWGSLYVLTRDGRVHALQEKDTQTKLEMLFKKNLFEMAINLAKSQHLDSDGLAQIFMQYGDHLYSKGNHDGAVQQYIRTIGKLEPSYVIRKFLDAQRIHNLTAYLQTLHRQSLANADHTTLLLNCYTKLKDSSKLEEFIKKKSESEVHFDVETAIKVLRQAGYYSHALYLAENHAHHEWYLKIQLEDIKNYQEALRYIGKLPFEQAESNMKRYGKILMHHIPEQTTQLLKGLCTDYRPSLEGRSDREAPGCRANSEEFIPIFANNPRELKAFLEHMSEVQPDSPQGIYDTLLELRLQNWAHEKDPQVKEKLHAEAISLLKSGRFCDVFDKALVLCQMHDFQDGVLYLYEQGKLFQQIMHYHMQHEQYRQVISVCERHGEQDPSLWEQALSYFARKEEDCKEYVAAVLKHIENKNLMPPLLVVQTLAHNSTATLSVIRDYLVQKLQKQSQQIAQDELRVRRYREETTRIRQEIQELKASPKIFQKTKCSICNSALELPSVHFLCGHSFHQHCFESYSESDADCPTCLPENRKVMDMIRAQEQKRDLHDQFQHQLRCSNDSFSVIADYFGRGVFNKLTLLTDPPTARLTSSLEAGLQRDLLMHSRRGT
# Method in brief: as §1
# [3] = molecular target: T5, UniProt Q9H4L7 and related entries
# T5 sequence (whole entry): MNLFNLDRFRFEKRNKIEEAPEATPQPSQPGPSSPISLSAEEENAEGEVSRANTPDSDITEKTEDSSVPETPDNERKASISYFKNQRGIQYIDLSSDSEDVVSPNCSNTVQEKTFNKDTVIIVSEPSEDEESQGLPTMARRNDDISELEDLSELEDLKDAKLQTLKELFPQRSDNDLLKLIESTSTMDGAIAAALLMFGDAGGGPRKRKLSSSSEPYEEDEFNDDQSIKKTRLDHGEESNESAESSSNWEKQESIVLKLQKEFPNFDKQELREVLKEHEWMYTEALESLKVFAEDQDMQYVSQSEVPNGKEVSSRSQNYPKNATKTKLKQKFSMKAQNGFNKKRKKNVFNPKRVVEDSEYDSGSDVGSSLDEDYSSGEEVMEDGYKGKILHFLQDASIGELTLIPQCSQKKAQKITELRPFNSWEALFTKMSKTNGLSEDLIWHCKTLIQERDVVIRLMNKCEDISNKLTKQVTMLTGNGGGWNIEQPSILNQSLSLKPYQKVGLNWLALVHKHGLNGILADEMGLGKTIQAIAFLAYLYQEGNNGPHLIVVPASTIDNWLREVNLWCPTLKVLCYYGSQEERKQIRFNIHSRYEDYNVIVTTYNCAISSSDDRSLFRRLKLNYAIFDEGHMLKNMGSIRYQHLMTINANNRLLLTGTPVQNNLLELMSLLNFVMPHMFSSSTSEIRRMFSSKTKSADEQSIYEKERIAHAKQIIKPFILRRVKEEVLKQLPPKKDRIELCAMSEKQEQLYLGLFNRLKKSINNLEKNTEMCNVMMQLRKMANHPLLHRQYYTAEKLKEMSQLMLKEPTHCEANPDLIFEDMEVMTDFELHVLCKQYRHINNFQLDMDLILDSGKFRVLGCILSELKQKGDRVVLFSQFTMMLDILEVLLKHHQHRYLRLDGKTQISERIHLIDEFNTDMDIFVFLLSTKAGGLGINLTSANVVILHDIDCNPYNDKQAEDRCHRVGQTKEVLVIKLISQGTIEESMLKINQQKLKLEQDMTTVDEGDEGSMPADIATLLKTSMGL
# Method in brief: as §1
structure (smiles),measurement,setting,value
Nc1ncnc2c1ncn2[C@@H]1O[C@H](COP(=O)(O)OP(=O)(O)OP(=O)(O)O)[C@@H](O)[C@H]1O [adenosine triphosphate],NP40-soluble protein abundance,UniProt Q9H0G5; concentration: 1mM,1.09 ± 0.041
same,NP40-soluble protein abundance,UniProt Q9H0G5; concentration: 2mM,1.12 ± 0.034
same,NP40-soluble protein abundance,UniProt Q9H0G5; concentration: 4mM,1.17 ± 0.019
same,NP40-soluble protein abundance,UniProt Q9H0G5; concentration: 6mM,1.24 ± 0.054
same,NP40-soluble protein abundance,UniProt Q9H0G5; concentration: 8mM,1.19 ± 0.027
same,NP40-soluble protein abundance,UniProt Q9H0G5; concentration: 10mM,1.26 ± 0.037
same,NP40-soluble protein abundance,[1]; concentration: 1mM,0.972 ± 0.073
same,NP40-soluble protein abundance,[1]; concentration: 2mM,0.943 ± 0.021
same,NP40-soluble protein abundance,[1]; concentration: 4mM,0.945 ± 0.092
same,NP40-soluble protein abundance,[1]; concentration: 6mM,0.979 ± 0.057
same,NP40-soluble protein abundance,[1]; concentration: 8mM,0.9563 ± 0.0062
same,NP40-soluble protein abundance,[1]; concentration: 10mM,0.978 ± 0.094
same,NP40-soluble protein abundance,UniProt Q9H0X4; concentration: 1mM,0.933 ± 0.047
same,NP40-soluble protein abundance,UniProt Q9H0X4; concentration: 2mM,0.904 ± 0.057
same,NP40-soluble protein abundance,UniProt Q9H0X4; concentration: 4mM,0.937 ± 0.019
same,NP40-soluble protein abundance,UniProt Q9H0X4; concentration: 6mM,0.967 ± 0.046
same,NP40-soluble protein abundance,UniProt Q9H0X4; concentration: 8mM,0.902 ± 0.014
same,NP40-soluble protein abundance,UniProt Q9H0X4; concentration: 10mM,0.872 ± 0.089
same,NP40-soluble protein abundance,[2]; concentration: 1mM,1.04 ± 0.1
same,NP40-soluble protein abundance,[2]; concentration: 2mM,1.02 ± 0.067
same,NP40-soluble protein abundance,[2]; concentration: 4mM,1.03 ± 0.079
same,NP40-soluble protein abundance,[2]; concentration: 6mM,0.944 ± 0.095
same,NP40-soluble protein abundance,[2]; concentration: 8mM,1.03 ± 0.033
same,NP40-soluble protein abundance,[2]; concentration: 10mM,1.02 ± 0.044
same,NP40-soluble protein abundance,[3]; concentration: 1mM,1 ± 0.032
same,NP40-soluble protein abundance,[3]; concentration: 2mM,0.977 ± 0.031
same,NP40-soluble protein abundance,[3]; concentration: 4mM,0.971 ± 0.047

# Two entries from above, with bars between the fields:
structure (smiles) | measurement | setting | value
Nc1ncnc2c1ncn2[C@@H]1O[C@H](COP(=O)(O)OP(=O)(O)OP(=O)(O)O)[C@@H](O)[C@H]1O [adenosine triphosphate] | NP40-soluble protein abundance | [1]; concentration: 1mM | 0.972 ± 0.073
same | NP40-soluble protein abundance | [1]; concentration: 2mM | 0.943 ± 0.021
